Measured values taken from publication PMC7481404.
These are yes or no findings as the source states them, for the method shown. Binding seen in cells or lysates may run through a third protein. Some results given as binding are weak or reduced against the parent protein; the word gives no strength.

Chains of the proteins cited; added tags and fusions are not shown.
UniProt O60260: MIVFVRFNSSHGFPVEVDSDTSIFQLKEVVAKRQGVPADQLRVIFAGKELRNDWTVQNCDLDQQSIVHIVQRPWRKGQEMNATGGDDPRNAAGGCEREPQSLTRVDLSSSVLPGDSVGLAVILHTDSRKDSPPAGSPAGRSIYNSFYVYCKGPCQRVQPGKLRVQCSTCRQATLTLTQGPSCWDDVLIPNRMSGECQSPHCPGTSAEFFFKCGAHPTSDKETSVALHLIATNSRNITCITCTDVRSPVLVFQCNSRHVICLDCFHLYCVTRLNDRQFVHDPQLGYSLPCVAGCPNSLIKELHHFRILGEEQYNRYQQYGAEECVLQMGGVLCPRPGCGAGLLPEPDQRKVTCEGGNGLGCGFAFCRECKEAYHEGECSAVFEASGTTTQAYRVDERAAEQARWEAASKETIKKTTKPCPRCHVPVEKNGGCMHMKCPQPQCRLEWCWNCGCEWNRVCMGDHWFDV
UniProt P10415: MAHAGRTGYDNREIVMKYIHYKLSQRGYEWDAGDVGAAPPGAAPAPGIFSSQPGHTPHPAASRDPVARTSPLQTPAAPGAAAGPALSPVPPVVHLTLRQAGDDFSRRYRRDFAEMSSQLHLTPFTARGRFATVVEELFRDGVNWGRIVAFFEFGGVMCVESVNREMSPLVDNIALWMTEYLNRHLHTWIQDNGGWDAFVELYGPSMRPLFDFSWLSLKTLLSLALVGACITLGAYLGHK

Columns and labels:
[1] = molecular target: PARK2 (endogenous, MDA-MB-134-VI) (human (endogenous in MDA-MB-134-VI)) (UniProt O60260); test: co-IP; endogenous proteins, MDA-MB-134-VI cells treated with docetaxel or vinorelbine for 24 h; lysate with anti-IgG, anti-BCL-2 or anti-PARK2 for 2 h, then protein G agarose overnight; washed three times with NETN buffer
[2] = molecular target: FLAG-tagged wild-type PARK2 (human) (UniProt O60260); test: co-IP; MCF-7 cells stably expressing FLAG-PARK2 or vector, with or without docetaxel (1 nM) 24 h (vinorelbine too); RIPA lysate; anti-FLAG agarose overnight at 4°C; washed three times with NETN buffer; western blot

Substance	binding [1]	binding [2]
BCL-2 (endogenous, MDA-MB-134-VI) (from UniProt P10415 1-239)	binds	
BCL-2 (endogenous, MCF-7) (from UniProt P10415 1-239)		binds
phospho-BCL-2 (Ser70) (endogenous, MDA-MB-134-VI) (from UniProt P10415 1-239)	binds	
